The subject of the experiment is Aspergillus fumigatus (ATCC 204305). As to the kind of experiment: Microdilution (CLSI) antifungal assay. The experiment is classed as cell-based. The note with it: Day1. (Broth dilution looks for growth in wells or tubes with falling amounts of substance.)

≈ marks a conversion by molar mass, not a printed value.

Results on one compound are retold here after patent US11534410B2, “Amphotericin loaded PEGylated lipid nanoparticles and methods of use” (University of Mississippi, priority 2018, dated 2022).

As a reminder, the MIC is the lowest concentration found to suppress growth. A higher MIC goes with a less susceptible organism.

On to `C[C@@H]1[C@H](O)[C@@H](C)/C=C/C=C/C=C/C=C/C=C/C=C/C=C/[C@H](O[C@@H]2O[C@H](C)[C@@H](O)[C@H](N)[C@@H]2O)C[C@@H]2O[C@](O)(C[C@@H](O)C[C@@H](O)[C@H](O)CC[C@@H](O)C[C@@H](O)CC(=O)O[C@H]1C)C[C@H](O)[C@H]2C(=O)O` [AmB, Amphotericin B], for which the MIC was 2.5 mg/L (≈ 2.71 µM).
